Laboratory results from article PMC12227992.

Biological target: MBP-LgFKF1-Kelch (Kelch repeat domain of LgFKF1, residues 300-630) (Luculia gratissima)
Assay: pull-down; 200 μg of the held MBP or GST fusion incubated with 200 μg of the His-SUMO or GST fusion at 4°C overnight; washed three times with PBS; blots with anti-MBP, anti-GST or anti-His; both purified

10 × His-SUMO-LgPRR7-PR (PR domain of LgPRR7, residues 97-556) (from UniProt A0A8K1UAW4) (domain or fragment)
binding: binds

These are yes or no findings as the source states them, for the method shown. Binding can be weak; no strength is given.
